Results: doi:10.1101/2025.06.20.660715

What was measured:
Assay in all cases: proximity labelling
MiniTurbo-tagged KRAS^WT = MiniTurbo-tagged KRAS^WT (UniProt P01116)
BirA-tagged KRAS^WT [1] = molecular target: BirA-tagged KRAS^WT (UniProt P01116)
BirA-tagged KRAS^WT [2] = molecular target: BirA-tagged KRAS^WT (UniProt P01116); remark: listed apart in the source

B1: MTMR12 (protein, UniProt Q9C0I1 1-747)
chain: MLGKGVVGGGGGTKAPKPSFVSYVRPEEIHTNEKEVTEKEVTLHLLPGEQLLCEASTVLKYVQEDSCQHGVYGRLVCTDFKIAFLGDDESALDNDETQFKNKVIGENDITLHCVDQIYGVFDEKKKTLFGQLKKYPEKLIIHCKDLRVFQFCLRYTKEEEVKRIVSGIIHHTQAPKLLKRLFLFSYATAAQNNTVTDPKNHTVMFDTLKDWCWELERTKGNMKYKAVSVNEGYKVCERLPAYFVVPTPLPEENVQRFQGHGIPIWCWSCHNGSALLKMSALPKEQDDGILQIQKSFLDGIYKTIHRPPYEIVKTEDLSSNFLSLQEIQTAYSKFKQLFLIDNSTEFWDTDIKWFSLLESSSWLDIIRRCLKKAIEITECMEAQNMNVLLLEENASDLCCLISSLVQLMMDPHCRTRIGFQSLIQKEWVMGGHCFLDRCNHLRQNDKEEVPVFLLFLDCVWQLVHQHPPAFEFTETYLTVLSDSLYIPIFSTFFFNSPHQKDTNMGREGQDTQSKPLNLLTVWDWSVQFEPKAQTLLKNPLYVEKPKLDKGQRKGMRFKHQRQLSLPLTQSKSSPKRGFFREETDHLIKNLLGKRISKLINSSDELQDNFREFYDSWHSKSTDYHGLLLPHIEGPEIKVWAQRYLRWIPEAQILGGGQVATLSKLLEMMEEVQSLQEKIDERHHSQQAPQAEAPCLLRNSARLSSLFPFALLQRHSSKPVLPTSGWKALGDEDDLAKREDEFVDLGDV
binding (MiniTurbo-tagged KRAS^WT): binds

B2: RASA2 (protein, UniProt Q15283 1-850)
chain: MAAAAPAAAAASSEAPAASATAEPEAGDQDSREVRVLQSLRGKICEAKNLLPYLGPHKMRDCFCTINLDQEEVYRTQVVEKSLSPFFSEEFYFEIPRTFQYLSFYVYDKNVLQRDLRIGKVAIKKEDLCNHSGKETWFSLQPVDSNSEVQGKVHLELKLNELITENGTVCQQLVVHIKACHGLPLINGQSCDPYATVSLVGPSRNDQKKTKVKKKTSNPQFNEIFYFEVTRSSSYTRKSQFQVEEEDIEKLEIRIDLWNNGNLVQDVFLGEIKVPVNVLRTDSSHQAWYLLQPRDNGNKSSKTDDLGSLRLNICYTEDYVLPSEYYGPLKTLLLKSPDVQPISASAAYILSEICRDKNDAVLPLVRLLLHHDKLVPFATAVAELDLKDTQDANTIFRGNSLATRCLDEMMKIVGGHYLKVTLKPILDEICDSSKSCEIDPIKLKEGDNVENNKENLRYYVDKLFNTIVKSSMSCPTVMCDIFYSLRQMATQRFPNDPHVQYSAVSSFVFLRFFAVAVVSPHTFHLRPHHPDAQTIRTLTLISKTIQTLGSWGSLSKSKSSFKETFMCEFFKMFQEEGYIIAVKKFLDEISSTETKESSGTSEPVHLKEGEMYKRAQGRTRIGKKNFKKRWFCLTSRELTYHKQPGSKDAIYTIPVKNILAVEKLEESSFNKKNMFQVIHTEKPLYVQANNCVEANEWIDVLCRVSRCNQNRLSFYHPSVYLNGNWLCCQETGENTLGCKPCTAGVPADIQIDIDEDRETERIYSLFTLSLLKLQKMEEACGTIAVYQGPQKEPDDYSNFVIEDSVTTFKTIQQIKSIIEKLDEPHEKYRKKRSSSAKYGSKENPIVGKAS
binding (BirA-tagged KRAS^WT [1]): binds
binding (BirA-tagged KRAS^WT [2]): binds

B3: DENDD2A (protein, UniProt Q9ULE3 1-1009)
chain: MDMFSLDMIISDPAAEASRAGKKQLRGVQNPCPSARARPRHKSLNIKDKISEWEGKKEVPTPAPSRRADGQEDYLPSSTVERRSSDGVRTQVTEAKNGMRPGTESTEKERNKGAVNVGGQDPEPGQDLSQPEREVDPSWGRGREPRLGKLRFQNDPLSVLKQVKKLEQALKDGSAGLDPQLPGTCYSPHCPPDKAEAGSTLPENLGGGSGSEVSQRVHPSDLEGREPTPELVEDRKGSCRRPWDRSLENVYRGSEGSPTKPFINPLPKPRRTFKHAGEGDKDGKPGIGFRKEKRNLPPLPSLPPPPLPSSPPPSSVNRRLWTGRQKSSADHRKSYEFEDLLQSSSESSRVDWYAQTKLGLTRTLSEENVYEDILDPPMKENPYEDIELHGRCLGKKCVLNFPASPTSSIPDTLTKQSLSKPAFFRQNSERRNFKLLDTRKLSRDGTGSPSKISPPSTPSSPDDIFFNLGDPQNGRKKRKIPKLVLRINAIYEVRRGKKRVKRLSQSMESNSGKVTDENSESDSDTEEKLKAHSQRLVNVKSRLKQAPRYPSLARELIEYQERQLFEYFVVVSLHKKQAGAAYVPELTQQFPLKLERSFKFMREAEDQLKAIPQFCFPDAKDWVPVQQFTSETFSFVLTGEDGSRRFGYCRRLLPGGKGKRLPEVYCIVSRLGCFSLFSRILDEVEKRRGISPALVQPLMRSVMEAPFPALGKTILVKNFLPGSGTEVIELCRPLDSRLEHVDFESLFSSLSVRHLVCVFASLLLERRVIFIADKLSILSKCCHAMVALIYPFAWQHTYIPVLPPAMVDIVCSPTPFLIGLLSSSLPLLRELPLEEVLVVDLVNSRFLRQMDDEDSILPRKLQVALEHILEQRNELACEQDEGPLDGRHGPESSPLNEVVSEAFVRFFVEIVGHYSLFLTSGEREERTLQREAFRKAVSSKSLRHFLEVFMETQMFRGFIQERELRRQDAKGLFEVRAQEYLETLPSGEHSGVNKFLKGLGNKMKFLHKK
binding (MiniTurbo-tagged KRAS^WT): binds

B6: FGD1 (protein, UniProt P98174 1-961)
chain: MHGHRAPGGAGPSEPEHPATNPPGAAPPACADSDPGASEPGLLARRGSGSALGGPLDPQFVGPSDTSLGAAPGHRVLPCGPSPQHHRALRFSYHLEGSQPRPGLHQGNRILVKSLSLDPGQSLEPHPEGPQRLRSDPGPPTETPSQRPSPLKRAPGPKPQVPPKPSYLQMPRMPPPLEPIPPPPSRPLPADPRVAKGLAPRAEASPSSAAVSSLIEKFEREPVIVASDRPVPGPSPGPPEPVMLPQPTSQPPVPQLPEGEASRCLFLLAPGPRDGEKVPNRDSGIDSISSPSNSEETCFVSDDGPPSHSLCPGPPALASVPVALADPHRPGSQEVDSDLEEEDDEEEEEEKDREIPVPLMERQESVELTVQQKVFHIANELLQTEKAYVSRLHLLDQVFCARLLEEARNRSSFPADVVHGIFSNICSIYCFHQQFLLPELEKRMEEWDRYPRIGDILQKLAPFLKMYGEYVKNFDRAVELVNTWTERSTQFKVIIHEVQKEEACGNLTLQHHMLEPVQRIPRYELLLKDYLLKLPHGSPDSKDAQKSLELIATAAEHSNAAIRKMERMHKLLKVYELLGGEEDIVSPTKELIKEGHILKLSAKNGTTQDRYLILFNDRLLYCVPRLRLLGQKFSVRARIDVDGMELKESSNLNLPRTFLVSGKQRSLELQARTEEEKKDWVQAINSTLLKHEQTLETFKLLNSTNREDEDTPPNSPNVDLGKRAPTPIREKEVTMCMRCQEPFNSITKRRHHCKACGHVVCGKCSEFRARLVYDNNRSNRVCTDCYVALHGVPGSSPACSQHTPQRRRSILEKQASVAAENSVICSFLHYMEKGGKGWHKAWFVVPENEPLVLYIYGAPQDVKAQRSLPLIGFEVGPPEAGERPDRRHVFKITQSHLSWYFSPETEELQRRWMAVLGRAGRGDTFCPGPTLSEDREMEEAPVAALGATAEPPESPQTRDKT
binding (MiniTurbo-tagged KRAS^WT): binds

Other lines, results leading:

binding (MiniTurbo-tagged KRAS^WT): binds
B4: RGL3 (protein, UniProt Q3MIN7 1-710)
chain: MERTAGKELALAPLQDWGEETEDGAVYSVSLRRQRSQRRSPAEGPGGSQAPSPIANTFLHYRTSKVRVLRAARLERLVGELVFGDREQDPSFMPAFLATYRTFVPTACLLGFLLPPMPPPPPPGVEIKKTAVQDLSFNKNLRAVVSVLGSWLQDHPQDFRDHPAHSDLGSVRTFLGWAAPGSAEAQKAEKLLEDFLEEAEREQEEEPPQVWTGPPRVAQTSDPDSSEACAEEEEGLMPQGPQLLDFSVDEVAEQLTLIDLELFSKVRLYECLGSVWSQRDRPGAAGASPTVRATVAQFNTVTGCVLGSVLGAPGLAAPQRAQRLEKWIRIAQRCRELRNFSSLRAILSALQSNPIYRLKRSWGAVSREPLSTFRKLSQIFSDENNHLSSREILFQEEATEGSQEEDNTPGSLPSKPPPGPVPYLGTFLTDLVMLDTALPDMLEGDLINFEKRRKEWEILARIQQLQRRCQSYTLSPHPPILAALHAQNQLTEEQSYRLSRVIEPPAASCPSSPRIRRRISLTKRLSAKLAREKSSSPSGSPGDPSSPTSSVSPGSPPSSPRSRDAPAGSPPASPGPQGPSTKLPLSLDLPSPRPFALPLGSPRIPLPAQQSSEARVIRVSIDNDHGNLYRSILLTSQDKAPSVVRRALQKHNVPQPWACDYQLFQVLPGDRVLLIPDNANVFYAMSPVAPRDFMLRRKEGTRNTLSVSPS

binding (MiniTurbo-tagged KRAS^WT): binds
B5: SYNJ2 (enzyme, UniProt O15056 1-1496)
chain: MALSKGLRLLGRLGAEGDCSVLLEARGRDDCLLFEAGTVATLAPEEKEVIKGQYGKLTDAYGCLGELRLKSGGTSLSFLVLVTGCTSVGRIPDAEIYKITATDFYPLQEEAKEEERLIALKKILSSGVFYFSWPNDGSRFDLTVRTQKQGDDSSEWGNSFFWNQLLHVPLRQHQVSCCDWLLKIICGVVTIRTVYASHKQAKACLVSRVSCERTGTRFHTRGVNDDGHVSNFVETEQMIYMDDGVSSFVQIRGSVPLFWEQPGLQVGSHHLRLHRGLEANAPAFDRHMVLLKEQYGQQVVVNLLGSRGGEEVLNRAFKKLLWASCHAGDTPMINFDFHQFAKGGKLEKLETLLRPQLKLHWEDFDVFTKGENVSPRFQKGTLRMNCLDCLDRTNTVQSFIALEVLHLQLKTLGLSSKPIVDRFVESFKAMWSLNGHSLSKVFTGSRALEGKAKVGKLKDGARSMSRTIQSNFFDGVKQEAIKLLLVGDVYGEEVADKGGMLLDSTALLVTPRILKAMTERQSEFTNFKRIRIAMGTWNVNGGKQFRSNVLRTAELTDWLLDSPQLSGATDSQDDSSPADIFAVGFEEMVELSAGNIVNASTTNKKMWGEQLQKAISRSHRYILLTSAQLVGVCLYIFVRPYHVPFIRDVAIDTVKTGMGGKAGNKGAVGIRFQFHSTSFCFICSHLTAGQSQVKERNEDYKEITQKLCFPMGRNVFSHDYVFWCGDFNYRIDLTYEEVFYFVKRQDWKKLLEFDQLQLQKSSGKIFKDFHEGAINFGPTYKYDVGSAAYDTSDKCRTPAWTDRVLWWRKKHPFDKTAGELNLLDSDLDVDTKVRHTWSPGALQYYGRAELQASDHRPVLAIVEVEVQEVDVGARERVFQEVSSFQGPLDATVVVNLQSPTLEEKNEFPEDLRTELMQTLGSYGTIVLVRINQGQMLVTFADSHSALSVLDVDGMKVKGRAVKIRPKTKDWLKGLREEIIRKRDSMAPVSPTANSCLLEENFDFTSLDYESEGDILEDDEDYLVDEFNQPGVSDSELGGDDLSDVPGPTALAPPSKSPALTKKKQHPTYKDDADLVELKRELEAVGEFRHRSPSRSLSVPNRPRPPQPPQRPPPPTGLMVKKSASDASISSGTHGQYSILQTARLLPGAPQQPPKARTGISKPYNVKQIKTTNAQEAEAAIRCLLEARGGASEEALSAVAPRDLEASSEPEPTPGAAKPETPQAPPLLPRRPPPRVPAIKKPTLRRTGKPLSPEEQFEQQTVHFTIGPPETSVEAPPVVTAPRVPPVPKPRTFQPGKAAERPSHRKPASDEAPPGAGASVPPPLEAPPLVPKVPPRRKKSAPAAFHLQVLQSNSQLLQGLTYNSSDSPSGHPPAAGTVFPQGDFLSTSSATSPDSDGTKAMKPEAAPLLGDYQDPFWNLLHHPKLLNNTWLSKSSDPLDSGTRSPKRDPIDPVSAGASAAKAELPPDHEHKTLGHWVTISDQEKRTALQVFDPLAKT

Where two headings read alike, the source gives them in different places. No constants are given. Whether binding was seen depends on the method and setting. Binding seen in cells or lysates may run through a third protein. Here binding means that the protein was enriched with, or labelled near, the bait; the list need not be complete. Each block holds one binder with its values, some of them ahead of it.
